Source: PubChem BioAssay AID493014 (National Center for Advancing Translational Sciences (NCATS), 2011)
Some of the results follow. Shown are side measurements of this screen, not its main read-out; they come without a call. Compounds called inactive in the main read-out are mostly missing here. The note in brackets gives the kind of curve behind each potency; many fits are weak.

Assay: qHTS Assay to Find Inhibitors of Chronic Active B-Cell Receptor Signaling
Settings: ABC-DLBCL IkBa-CBG/CBR reporter, luminescence ratio (green luciferase fused to IkBa over red control in TMD8 lymphoma cells), 4 h
Outline: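 TMD8 human ABC-DLBCL cells with doxycycline-inducible IκBα–green luciferase fusion and unfused red luciferase, in 0.5% FBS medium; compounds up to 46 uM, 4 h at 37C. Green/red luminescence ratio, filter-overlap corrected, fitted to concentration-response curves.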

[1] = measured here: CBR red luminescence, cell number
[2] = measured here: IkBa-CBG green luminescence

Compound | AC50 [1] | AC50 [2]
COc1ccc(C(=O)Nc2cc(C)ccc2NC(=O)COc2ccccc2)cc1 | 16.4 µM [rising, partial curve] | 
CCOC(=O)C1=NN(c2ccc(OC)cc2)C(c2ccccc2)CC1=O (configuration not stated) | 29.1 µM [falling, single point] | 
COc1cc(C(=O)NCC(c2cccs2)N2CCc3ccccc32)cc(OC)c1OC (configuration not stated) | 29.1 µM [falling, single point] | 32.6 µM [rising, partial curve, poor fit]
COc1cc2c(cc1OC)-c1cc(Nc3ccc(C)cc3)nc(=O)n1CC2 |  | 14.1 µM [falling, partial curve]
CC(C)(C)C(=O)OCc1nc(-c2ccc(F)cc2)cs1 | 3.98 µM [rising, full curve] | 
CCNC(=S)NNC(=O)Nc1ccccc1 | 29.1 µM [rising, single point] | 
CCOc1ncccc1C(=O)Nc1ncc(C)s1 | 31.6 µM [falling, single point] | 
Cc1ccccc1N(C(=O)Cc1ccsc1)C(C(=O)NC1CCCCC1)c1ccc(F)cc1 (configuration not stated) | 28.2 µM [falling, single point] | 
Nc1nc2c(F)cccc2s1 | 0.82 µM [rising, full curve, poor fit] | 
Cc1cc(C(=O)COC(=O)CNS(=O)(=O)c2ccc3ccccc3c2)c(C)n1-c1ccccc1 | 23.1 µM [rising, single point] | 
c1ccc(-c2cn3nc4c(nc3n2)CCCC4)cc1 | 6.51 µM [falling, partial curve] | 
Cc1ccccc1OCC(=O)NNC(=S)NC(=O)c1ccccc1[N+](=O)[O-] | 18.4 µM [falling, single point] | 
O=C1/C(=C/c2cccs2)SC(=S)N1CCCC(=O)N(CCO)c1ccccc1 | 35.5 µM [falling, single point] | 
CC(C)Cn1c(=O)c2c(nc3n2CC(C)CN3Cc2ccccc2)n(C)c1=O (configuration not stated) | 5.01 µM [falling, partial curve, poor fit] | 
COc1ccc(C/C(C)=N/NC(=S)Nc2ccc(Cl)cc2)cc1 | 17.8 µM [rising, partial curve, poor fit] | 
COC(=O)c1ccccc1NC(=O)CSc1nnc(C(C)NC(=O)c2ccc(Cl)cc2Cl)n1C (configuration not stated) | 0.058 µM [rising, full curve, poor fit] | 
COc1ccc(CN2CCN(C(=O)c3ccco3)CC2)cc1OCc1ccccc1 | 8.91 µM [rising, partial curve] | 
Nc1cccc(-c2nc3ccccc3s2)c1 | 2.31 µM [rising, partial curve, poor fit] | 
O=C(CSc1nccc(-c2cccs2)n1)Nc1ccc(Cl)cc1 | 25.1 µM [rising, single point] | 
CC(C)OCCCn1c(SCC(N)=O)nc2c(sc3ccccc32)c1=O | 0.708 µM [falling, full curve, poor fit] | 
O=C(Nc1ccccc1)Nc1cccc2cccnc12 | 13 µM [falling, partial curve] | 
CC(C)(C)Nc1nc(Cl)nc(Nc2ccccc2)n1 | 11.2 µM [falling, partial curve, poor fit] | 

Compound | AC50 [1] | AC50 [2]
CCSc1nnc(NC(=O)c2c(C)noc2C)s1 | 11.2 µM [falling, partial curve, poor fit] | 
CCCC[C@@H]1CNCCN1CCc1cccc2ccccc12 | 29.1 µM [falling, single point] | 
c1ccc(OCc2nc(-c3ccccc3)no2)cc1 | 29.1 µM [falling, partial curve, poor fit] | 
COC(=O)c1ccccc1NC(=O)CCc1ccccc1 | 32.6 µM [falling, single point] | 
O=C(Cc1ccc(Nc2nc3ccc(Br)cc3[nH]2)cc1)NCCc1cccs1 | 29.1 µM [falling, single point] | 
CCOc1ccc(NC(=O)c2ccc(NCC(=O)N3CCCCCC3)cc2)cc1 | 7.08 µM [falling, partial curve] | 
C/C(=N\NC(=O)c1ccccc1C)c1cccc([N+](=O)[O-])c1 | 16.4 µM [falling, partial curve, poor fit] | 
O=C(Nc1ccc(Cl)c(Cl)c1)c1cc(S(=O)(=O)N2CCN(c3cccc(Cl)c3)CC2)ccc1F | 2.51 µM [falling, partial curve, poor fit] | 
CC(C)c1nnc(NC(=O)CCC(=O)N2CCN(C3c4ccccc4-c4ccccc43)CC2)s1 | 2.31 µM [rising, full curve] | 
CN(C)c1cccc(C(=O)NNC(=S)NC2CC3CCC2C3)c1 (configuration not stated) | 8.91 µM [falling, partial curve] | 
COc1ccccc1N1C(=O)C(Cl)=C(N2CCCC2)C1=O | 35.5 µM [falling, single point] | 
C/C(=N\NC(=O)c1n[nH]c2c1CCC2)c1ccco1 | 2.51 µM [falling, full curve] | 35.5 µM [falling, single point]
COc1cccc2cc(C(=O)NCCc3c[nH]c4ccccc34)c(=O)oc12 | 14.1 µM [falling, partial curve, poor fit] | 
CCOC(=O)c1cnc(-c2ccccc2)nc1N | 8.2 µM [falling, partial curve, poor fit] | 
Cc1cccc(-c2noc(CCc3ccccc3)n2)c1 | 1.41 µM [rising, partial curve, poor fit] | 
CSc1ccc(C(=O)N2CCc3ccc(NC(=O)c4ccccn4)cc3C2)cc1 | 35.5 µM [falling, single point] | 
O=C(CN1CCOCC1)Nc1nc2ccc(Cl)cc2s1 | 3.98 µM [falling, single point] | 
COc1cc2c(cc1OC)CN(c1nc(-c3cccnc3)nc3ccccc13)CC2 | 35.5 µM [falling, partial curve, poor fit] | 
O=C(c1ccc2ccccc2c1)C1CCCN(S(=O)(=O)c2cccnc2)C1 (configuration not stated) | 22.4 µM [falling, single point] | 
Cc1ccc2cccc(OCC(=O)Nc3cccc(S(=O)(=O)N4CCCC4)c3)c2n1 | 18.4 µM [falling, single point] | 
CCn1cc([N+](=O)[O-])c(C(=O)N2N=C(c3ccc(OC)cc3OC)CC2c2ccccc2O)n1 (configuration not stated) | 32.6 µM [falling, partial curve, poor fit] | 
O=C(CSC1=NS(=O)(=O)c2ccccc21)Nc1ccccc1 | 0.0231 µM [falling, full curve, poor fit] | 

Single entries from the results shown.
AC50 [1], Cc1ccc2cccc(OCC(=O)Nc3cccc(S(=O)(=O)N4CCCC4)c3)c2n1 reads 18.4 µM [falling, single point]
AC50 [1], COc1ccccc1N1C(=O)C(Cl)=C(N2CCCC2)C1=O reads 35.5 µM [falling, single point]
AC50 [1], O=C(Nc1ccc(Cl)c(Cl)c1)c1cc(S(=O)(=O)N2CCN(c3cccc(Cl)c3)CC2)ccc1F reads 2.51 µM [falling, partial curve, poor fit]
AC50 [1], CCOc1ccc(NC(=O)c2ccc(NCC(=O)N3CCCCCC3)cc2)cc1 reads 7.08 µM [falling, partial curve]

(listing goes on)

Compound | AC50 [1] | AC50 [2]
CCN(CC)CC(O)COCCC12CC3CC(CC(C3)C1)C2 (configuration not stated) | 20.6 µM [falling, single point] | 
Cc1ccccc1NC(=O)Cn1nnc2sc3c(c2c1=O)CC(C)(C)OC3 | 0.562 µM [rising, full curve, poor fit] | 
CCOC(=O)c1c(NC(=O)CSc2nncs2)sc(C)c1-c1ccccc1 | 25.9 µM [falling, single point] | 
Cc1cccc(CNc2ncnc3ccc(-c4ccccc4Cl)cc23)c1 | 16.4 µM [falling, single point] | 
COc1ccc(CN2C(=O)c3ccccc3C2C(=O)NCc2cccnc2)c(OC)c1 (configuration not stated) | 35.5 µM [rising, single point] | 
Cc1cc(C)n(-c2ncnc3c2oc2ccccc23)n1 | 3.55 µM [rising, single point] | 
Nc1cc(Nc2ccc(Br)cc2)nc(N)n1 | 3.55 µM [falling, single point] | 
CCCCCOC(=O)C1=C(C)NC(=O)NC1c1ccc([N+](=O)[O-])cc1 (configuration not stated) | 20 µM [falling, partial curve, poor fit] | 
c1ccc2c(c1)CNc1ccccc1C2 | 0.13 µM [rising, full curve, poor fit] | 
Cc1cccc(C)c1OCC(=O)NNC(=O)CCCn1c(=O)oc2ccccc21 | 6.51 µM [rising, partial curve, poor fit] | 
CCN(CC)S(=O)(=O)c1ccc(NN=C2CCN(C(C)C)CC2)c([N+](=O)[O-])c1 | 5.62 µM [falling, full curve] | 
Cc1cc(C)cc(NC(=O)Nc2ccc(NC(=O)c3ccccc3O)cc2)c1 | 31.6 µM [rising, single point] | 
O=C(Nc1cccnc1Cl)c1cc(-c2ccc(O)cc2)on1 | 5.01 µM [falling, partial curve, poor fit] | 
O=C(O)/C=C/C(=O)Nc1ccc(Cl)c(C(=O)O)c1 | 15.8 µM [falling, single point] | 
Cc1ccc2c(c1)C(O)(CC(=O)/C=C/C=C/c1ccccc1)C(=O)N2 (configuration not stated) | 17.8 µM [falling, single point] | 
CC(=O)Nc1cccc(-c2csc(Nc3cc(C)ccn3)n2)c1 | 0.447 µM [falling, full curve, poor fit] | 
COc1ccccc1CCNC(=O)C(=O)c1cn(CC(=O)N2CCOCC2)c2ccccc12 | 2.24 µM [falling, partial curve, poor fit] | 
CC(=O)NC1C2CN3CCN(C2)CC1(Cc1ccccc1)C3 (configuration not stated) | 18.4 µM [rising, single point] | 
CCCCNC(=O)c1ccccc1NC(=O)c1ccc2c(c1)OCO2 | 35.5 µM [falling, single point] | 
CCOc1cccc(C(=O)Nc2ccc(N(CC)CC)cc2)c1 | 1 µM [falling, partial curve, poor fit] | 
O=C(C[C@H]1C[C@H](C(=O)N2CCOCC2)[C@@]2(CCC3CCCC3)c3[nH]c4cc(-c5ccco5)ccc4c3CCN2C1=O)NCCc1ccccn1 | 18.4 µM [falling, partial curve, poor fit] | 
